Data as given in PubChem BioAssay AID1508597 (Cure First, 2020)
This is a random part of about 2,100 reagents. 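Calls flag viability under 80% in either arm, not effects specific to rucaparib; the reference for percent is not stated.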 Some reagents were tested in more than one well and are listed for each. The record does not give: the 100% reference.

Assay: 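Knock-downs altering ovarian cancer cell survival with or without PARP inhibitor rucaparib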 (primary screen)
System: human ovarian carcinoma lines grown from tumours: OCI-P5x (papillary serous) and OCI-C5x (clear cell)
Knock-down reagent: siRNA pool against human genes, 1.25 pmol siRNA per well
Timing: 72 h or 96 h, depending on the cell culture
Challenge: rucaparib 20 µM (about IC30) or vehicle, present until read-out
Measurement: 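Luminescent ATP-based viability assay read 72 or 96 h after transfection, depending on culture, given as normalised percent viability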
Direction: viability, normalised: higher = more viable cells remaining
Rule for the call: 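a well counts as a hit if its normalised viability is under 80 percent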
Calls: active = viability under 80%; inactive = viability 80% or more

BUB1B (GeneID 701), rucaparib or vehicle Rucaparib, cell line OCI-C5x (clear cell), technical replicate 1 → viability, normalised (%) = 48; Outcome = active
BUB1B (GeneID 701), rucaparib or vehicle Rucaparib, cell line OCI-C5x (clear cell), technical replicate 1 → viability, normalised (%) = 32.2; Outcome = active
BUB1B (GeneID 701), rucaparib or vehicle Rucaparib, cell line OCI-C5x (clear cell), technical replicate 1 → viability, normalised (%) = 74.1; Outcome = active
BUB1B (GeneID 701), rucaparib or vehicle Rucaparib, cell line OCI-C5x (clear cell), technical replicate 2 → viability, normalised (%) = 49.4; Outcome = active
BUB1B (GeneID 701), rucaparib or vehicle Rucaparib, cell line OCI-C5x (clear cell), technical replicate 2 → viability, normalised (%) = 35.4; Outcome = active
BUB1B (GeneID 701), rucaparib or vehicle Rucaparib, cell line OCI-C5x (clear cell), technical replicate 2 → viability, normalised (%) = 78.7; Outcome = active
BUB1B (GeneID 701), rucaparib or vehicle Rucaparib, cell line OCI-C5x (clear cell), technical replicate 3 → viability, normalised (%) = 36.4; Outcome = active
BUB1B (GeneID 701), rucaparib or vehicle Rucaparib, cell line OCI-C5x (clear cell), technical replicate 3 → viability, normalised (%) = 91.5; Outcome = inactive
BUB1B (GeneID 701), rucaparib or vehicle Rucaparib, cell line OCI-C5x (clear cell), technical replicate 3 → viability, normalised (%) = 72; Outcome = active
BUB1B (GeneID 701), rucaparib or vehicle Rucaparib, cell line OCI-P5x (serous), technical replicate 1 → viability, normalised (%) = 39.3; Outcome = active
BUB1B (GeneID 701), rucaparib or vehicle Rucaparib, cell line OCI-P5x (serous), technical replicate 1 → viability, normalised (%) = 74.8; Outcome = active
BUB1B (GeneID 701), rucaparib or vehicle Rucaparib, cell line OCI-P5x (serous), technical replicate 1 → viability, normalised (%) = 148; Outcome = inactive
BUB1B (GeneID 701), rucaparib or vehicle Rucaparib, cell line OCI-P5x (serous), technical replicate 2 → viability, normalised (%) = 49.1; Outcome = active
BUB1B (GeneID 701), rucaparib or vehicle Rucaparib, cell line OCI-P5x (serous), technical replicate 2 → viability, normalised (%) = 152; Outcome = inactive
BUB1B (GeneID 701), rucaparib or vehicle Rucaparib, cell line OCI-P5x (serous), technical replicate 2 → viability, normalised (%) = 68.5; Outcome = active
BUB1B (GeneID 701), rucaparib or vehicle Rucaparib, cell line OCI-P5x (serous), technical replicate 3 → viability, normalised (%) = 79.7; Outcome = active
BUB1B (GeneID 701), rucaparib or vehicle Rucaparib, cell line OCI-P5x (serous), technical replicate 3 → viability, normalised (%) = 112; Outcome = inactive
BUB1B (GeneID 701), rucaparib or vehicle Rucaparib, cell line OCI-P5x (serous), technical replicate 3 → viability, normalised (%) = 45.9; Outcome = active
BUB1B (GeneID 701), rucaparib or vehicle Vehicle, cell line OCI-C5x (clear cell), technical replicate 1 → viability, normalised (%) = 65.6; Outcome = active
BUB1B (GeneID 701), rucaparib or vehicle Vehicle, cell line OCI-C5x (clear cell), technical replicate 1 → viability, normalised (%) = 61.7; Outcome = active
BUB1B (GeneID 701), rucaparib or vehicle Vehicle, cell line OCI-C5x (clear cell), technical replicate 1 → viability, normalised (%) = 29.4; Outcome = active
BUB1B (GeneID 701), rucaparib or vehicle Vehicle, cell line OCI-C5x (clear cell), technical replicate 2 → viability, normalised (%) = 53.6; Outcome = active
BUB1B (GeneID 701), rucaparib or vehicle Vehicle, cell line OCI-C5x (clear cell), technical replicate 2 → viability, normalised (%) = 66.6; Outcome = active
BUB1B (GeneID 701), rucaparib or vehicle Vehicle, cell line OCI-C5x (clear cell), technical replicate 2 → viability, normalised (%) = 24.4; Outcome = active
BUB1B (GeneID 701), rucaparib or vehicle Vehicle, cell line OCI-C5x (clear cell), technical replicate 3 → viability, normalised (%) = 65.2; Outcome = active
BUB1B (GeneID 701), rucaparib or vehicle Vehicle, cell line OCI-C5x (clear cell), technical replicate 3 → viability, normalised (%) = 48.8; Outcome = active
BUB1B (GeneID 701), rucaparib or vehicle Vehicle, cell line OCI-C5x (clear cell), technical replicate 3 → viability, normalised (%) = 47.4; Outcome = active
BUB1B (GeneID 701), rucaparib or vehicle Vehicle, cell line OCI-P5x (serous), technical replicate 1 → viability, normalised (%) = 83.5; Outcome = inactive
BUB1B (GeneID 701), rucaparib or vehicle Vehicle, cell line OCI-P5x (serous), technical replicate 1 → viability, normalised (%) = 37.6; Outcome = active
BUB1B (GeneID 701), rucaparib or vehicle Vehicle, cell line OCI-P5x (serous), technical replicate 1 → viability, normalised (%) = 102; Outcome = inactive
BUB1B (GeneID 701), rucaparib or vehicle Vehicle, cell line OCI-P5x (serous), technical replicate 2 → viability, normalised (%) = 42.7; Outcome = active
BUB1B (GeneID 701), rucaparib or vehicle Vehicle, cell line OCI-P5x (serous), technical replicate 2 → viability, normalised (%) = 88.6; Outcome = inactive
BUB1B (GeneID 701), rucaparib or vehicle Vehicle, cell line OCI-P5x (serous), technical replicate 2 → viability, normalised (%) = 126; Outcome = inactive
BUB1B (GeneID 701), rucaparib or vehicle Vehicle, cell line OCI-P5x (serous), technical replicate 3 → viability, normalised (%) = 131; Outcome = inactive
BUB1B (GeneID 701), rucaparib or vehicle Vehicle, cell line OCI-P5x (serous), technical replicate 3 → viability, normalised (%) = 45.8; Outcome = active
BUB1B (GeneID 701), rucaparib or vehicle Vehicle, cell line OCI-P5x (serous), technical replicate 3 → viability, normalised (%) = 81.8; Outcome = inactive
